Common to all, as to test: cleaved PARP positive nuclei fraction relative to DMSO control; melanoma cells; higher = more apoptosis
Conditions in all cases: library dose: low library concentration; 72 h

Test [1] deals with WM115.
For test [2], the system named is WM1716.
The test system of test [3] is WM1745.
The test system of test [4] is WM3526.
The subject of test [5] is WM3619.
Test [6] deals with WM451Lu.

Some of the results follow. Repeats are few or missing, and single values can be far off.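 The apoptosis fraction was the count of cleaved-PARP antibody-stained nuclei relative to all DNA-stained nuclei, imaged in 1,536-well plates. Screening doses were set so most cells survived, and baseline and induced cleaved-PARP levels vary greatly across cell lines.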

Data on 16 compounds can be found in the supplement of paper PMC4604168 (melanoma cell lines).

With `C=CCNC1=C2C[C@@H](C)C[C@H](OC)[C@H](O)[C@@H](C)/C=C(\C)[C@H](OC(N)=O)[C@@H](OC)/C=C\C=C(/C)C(=O)NC(=CC1=O)C2=O` [Tanespimycin] + Cc1cc(N2CCOCC2)cc2[nH]c(-c3c(NC[C@@H](O)c4cccc(Cl)c4)cc[nH]c3=O)nc12 [BMS536924] (first compound 0.002 µM, partner dose 0.2 µM), the “cleaved PARP positive nuclei fraction” value in test [1] amounted to 81%; in test [2], 31.8%; in test [3], 218%; in test [4], 73.4%; in test [5] it was 114%; in test [6], 70%.
On to `C#Cc1cccc(Nc2ncnc3cc(OCCOC)c(OCCOC)cc23)c1` [erlotinib] + O=C(Nc1cccc(Cl)c1)Nc1ncc(CCNc2ncnc3ccsc23)s1 [SNS314] (first compound 0.8 µM, partner dose 0.0008 µM), for which the “cleaved PARP positive nuclei fraction” value in test [1] is 175%; in test [2] it was 101%; in test [3], 112%; in test [4] it was 30.8%; in test [5], 116%; in test [6] it was 74.8%.
As to `Cc1ccc(NC(=O)c2cccc(N(C)C)c2)cc1NC(=O)c1ccc(O)cc1` + O=C(Nc1cccc(Cl)c1)Nc1ncc(CCNc2ncnc3ccsc23)s1 [SNS314] (first compound 2 µM, partner dose 0.0008 µM), the “cleaved PARP positive nuclei fraction” value was 204% in test [1]; 89.2% in test [2]; 93.3% in test [3]; 54.6% in test [4]; 88% in test [5]; 137% in test [6].
In the case of `C#Cc1cccc(Nc2ncnc3cc(OCCOC)c(OCCOC)cc23)c1` [erlotinib] + O=C(O)C(=O)Nc1sc2c(c1C(=O)O)CCNC2 [TCS401] (first compound 0.8 µM, partner dose 1.66667 µM), the “cleaved PARP positive nuclei fraction” value is 233% in test [1]; 282% in test [2]; 133% in test [3]; 78.4% in test [4]; 84.3% in test [5]; 26.4% in test [6].
Turning to `COc1cc(Nc2ncc(F)c(Nc3ccc4c(n3)NC(=O)C(C)(C)O4)n2)cc(OC)c1OC` [Tamatinib] + Cn1cncc1[C@@](N)(c1ccc(Cl)cc1)c1ccc2c(c1)c(-c1cccc(Cl)c1)cc(=O)n2C [tipifarnib] (first compound 0.4 µM, partner dose 0.01 µM), the “cleaved PARP positive nuclei fraction” value is 649% in test [1]; 169% in test [2]; 134% in test [3]; 40.8% in test [4]; 178% in test [5]; 22.2% in test [6].
On to `CC1(C)NC(=O)N(c2ccc([N+](=O)[O-])c(C(F)(F)F)c2)C1=O` [nilutamide] + COc1cc(N2CCC(N3CCN(C)CC3)CC2)ccc1Nc1ncc(Cl)c(Nc2ccccc2S(=O)(=O)C(C)C)n1 [NVP-TAE684] (first compound 1 µM, partner dose 0.08 µM), for which the “cleaved PARP positive nuclei fraction” value in test [1] was 110%; in test [2], 54.1%; in test [3] it was 112%; in test [4], 103%; in test [5], 84.3%; in test [6], 33.5%.
On to `CC(C)(C)c1cnc(CSc2cnc(NC(=O)C3CCNCC3)s2)o1` + OCCn1cc(-c2cnc3nnn(Cc4ccc5ncccc5c4)c3n2)cn1 [PF04217903] (first compound 0.01 µM, partner dose 1 µM), for which the “cleaved PARP positive nuclei fraction” value in test [1] came to 70.2%; in test [2], 73.4%; in test [3] it was 95.9%; in test [4], 176%; in test [5], 94%; in test [6], 157%.
Regarding `COCC[n+]1c2c(n(Cc3cnccn3)c1C)C(=O)c1ccccc1C2=O` + CC1(C)NC(=O)N(c2ccc([N+](=O)[O-])c(C(F)(F)F)c2)C1=O [nilutamide] (first compound 0.0004 µM, partner dose 1 µM), the “cleaved PARP positive nuclei fraction” value in test [1] turned out to be 199%; in test [2] it was 83.6%; in test [3] it was 193%; in test [4], 68.3%; in test [5], 117%; in test [6], 222%.
With `Nc1cccc2c1CN(C1CCC(=O)NC1=O)C2=O` (stereo unspecified) [lenalidomide] + COc1cc(N2CCC(N3CCN(C)CC3)CC2)ccc1Nc1ncc(Cl)c(Nc2ccccc2S(=O)(=O)C(C)C)n1 [NVP-TAE684] (first compound 1 µM, partner dose 0.08 µM), the “cleaved PARP positive nuclei fraction” value turned out to be 81.1% in test [1]; 63.5% in test [2]; 139% in test [3]; 84.2% in test [4]; 63.3% in test [5]; 120% in test [6].
As to `OCCn1cc(-c2cnc3nnn(Cc4ccc5ncccc5c4)c3n2)cn1` + CN(NC(=O)CC(=O)NN(C)C(=S)c1ccccc1)C(=S)c1ccccc1 [STA4783] (first compound 1 µM, partner dose 0.006 µM), the “cleaved PARP positive nuclei fraction” value in test [1] is 265%; in test [2], 119%; in test [3], 96.5%; in test [4] it was 187%; in test [5], 80.6%; in test [6], 62.3%.
As for `Cn1c(Nc2ccc(C(F)(F)F)cc2)nc2cc(Oc3ccnc(-c4ncc(C(F)(F)F)[nH]4)c3)ccc21` + CO[C@@H]1[C@H](N(C)C(=O)c2ccccc2)C[C@H]2O[C@]1(C)n1c3ccccc3c3c4c(c5c6ccccc6n2c5c31)C(=O)NC4 [Midostaurin] (first compound 0.08 µM, partner dose 0.08 µM), the “cleaved PARP positive nuclei fraction” value was determined as 416% in test [1]; 264% in test [2]; 207% in test [3]; 229% in test [4]; 120% in test [5]; 124% in test [6].
`Clc1ccc(Nc2nnc(Cc3ccncc3)c3ccccc23)cc1` [vatalanib] + CCc1ccc(CCOc2ccc(CC3SC(=O)NC3=O)cc2)nc1 [pioglitazone] (first compound 2 µM, partner dose 2 µM): the “cleaved PARP positive nuclei fraction” value was found to be 114% in test [1]; 70.5% in test [2]; 86.2% in test [3]; 185% in test [4]; 129% in test [5]; 126% in test [6].
Take `CO[C@@H]1[C@H](N(C)C(=O)c2ccccc2)C[C@H]2O[C@]1(C)n1c3ccccc3c3c4c(c5c6ccccc6n2c5c31)C(=O)NC4` [Midostaurin] + COc1ccc(COc2ccc(Cc3cnc(N)nc3N)cc2OC)cc1 [GW2580] (first compound 0.08 µM, partner dose 1 µM): the “cleaved PARP positive nuclei fraction” value in test [1] worked out at 153%; in test [2], 228%; in test [3] it was 110%; in test [4] it was 71.6%; in test [5], 103%; in test [6] it was 66.9%.
With `C=CCNC1=C2C[C@@H](C)C[C@H](OC)[C@H](O)[C@@H](C)/C=C(\C)[C@H](OC(N)=O)[C@@H](OC)/C=C\C=C(/C)C(=O)NC(=CC1=O)C2=O` [Tanespimycin] + CCCCCCCCCCCC1=C(O)C(=O)C=C(O)C1=O [Embelin] (first compound 0.002 µM, partner dose 1.2 µM), the “cleaved PARP positive nuclei fraction” value in test [1] was 75.2%; in test [2] it was 73.2%; in test [3], 85.6%; in test [4], 198%; in test [5], 83.4%; in test [6], 1230%.
Regarding `CC(C)(C)c1cnc(CSc2cnc(NC(=O)C3CCNCC3)s2)o1` + Cn1cc(/C=C2\C(=O)Nc3cccnc32)c2ccccc21 [GW441756] (first compound 0.01 µM, partner dose 0.4 µM), the “cleaved PARP positive nuclei fraction” value in test [1] was found to be 94.5%; in test [2], 115%; in test [3] it was 116%; in test [4] it was 174%; in test [5], 82.5%; in test [6], 82.7%.
On to `Cn1nnc2c(C(N)=O)ncn2c1=O` [temozolomide] + CCc1ccc(CCOc2ccc(CC3SC(=O)NC3=O)cc2)nc1 [pioglitazone] (first compound 2 µM, partner dose 2 µM), for which the “cleaved PARP positive nuclei fraction” value in test [1] was 109%; in test [2], 80.8%; in test [3], 108%; in test [4] it was 64.8%; in test [5], 88.7%; in test [6], 76.1%.
